Assay results as given in the supplement of paper PMC10849652.
This is one part of the list.

The chains behind the UniProt entries cited, without tags or fusion partners. Where a name states a change or a piece, a line headed by the entry shows the natural chain unless it says otherwise.
UniProt P17844: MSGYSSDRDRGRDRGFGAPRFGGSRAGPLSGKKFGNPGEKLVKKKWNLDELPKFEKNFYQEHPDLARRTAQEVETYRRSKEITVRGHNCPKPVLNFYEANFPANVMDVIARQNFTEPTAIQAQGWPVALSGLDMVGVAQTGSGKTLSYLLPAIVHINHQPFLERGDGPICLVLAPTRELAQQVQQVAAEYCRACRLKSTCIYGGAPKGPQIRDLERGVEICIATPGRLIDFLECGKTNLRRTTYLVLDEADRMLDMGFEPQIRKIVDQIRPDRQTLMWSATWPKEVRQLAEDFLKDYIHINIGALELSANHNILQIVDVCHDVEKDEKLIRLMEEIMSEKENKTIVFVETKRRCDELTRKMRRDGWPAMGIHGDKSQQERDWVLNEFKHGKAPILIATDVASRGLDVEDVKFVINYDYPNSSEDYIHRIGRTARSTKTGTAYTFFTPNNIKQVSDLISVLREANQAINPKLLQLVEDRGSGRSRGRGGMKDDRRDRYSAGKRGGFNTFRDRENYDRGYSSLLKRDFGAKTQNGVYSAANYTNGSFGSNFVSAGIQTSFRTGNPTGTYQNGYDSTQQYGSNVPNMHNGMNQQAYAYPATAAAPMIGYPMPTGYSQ
UniProt P39656: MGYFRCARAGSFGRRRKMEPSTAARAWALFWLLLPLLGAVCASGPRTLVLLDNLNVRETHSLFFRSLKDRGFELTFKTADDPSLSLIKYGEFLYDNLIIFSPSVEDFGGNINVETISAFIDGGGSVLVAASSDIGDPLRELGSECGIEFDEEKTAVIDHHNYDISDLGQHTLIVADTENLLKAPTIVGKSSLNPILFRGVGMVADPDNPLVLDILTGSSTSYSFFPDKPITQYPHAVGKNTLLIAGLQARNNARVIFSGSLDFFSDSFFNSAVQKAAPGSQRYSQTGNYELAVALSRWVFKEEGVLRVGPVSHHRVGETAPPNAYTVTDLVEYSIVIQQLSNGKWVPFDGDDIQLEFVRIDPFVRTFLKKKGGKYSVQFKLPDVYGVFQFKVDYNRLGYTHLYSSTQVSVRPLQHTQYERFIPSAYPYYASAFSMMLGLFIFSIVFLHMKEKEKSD
UniProt Q92466: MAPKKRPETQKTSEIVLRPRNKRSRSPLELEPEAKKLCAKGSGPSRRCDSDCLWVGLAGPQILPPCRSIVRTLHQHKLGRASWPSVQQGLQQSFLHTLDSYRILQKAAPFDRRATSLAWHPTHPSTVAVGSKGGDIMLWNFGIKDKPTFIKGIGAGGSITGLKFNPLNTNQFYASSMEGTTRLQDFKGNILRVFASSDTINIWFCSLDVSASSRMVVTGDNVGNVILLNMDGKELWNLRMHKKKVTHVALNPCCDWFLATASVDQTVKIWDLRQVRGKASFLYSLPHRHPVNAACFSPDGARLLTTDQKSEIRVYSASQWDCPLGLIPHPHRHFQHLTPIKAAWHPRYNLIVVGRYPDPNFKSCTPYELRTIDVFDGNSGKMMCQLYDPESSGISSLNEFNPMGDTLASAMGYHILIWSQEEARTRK
UniProt O75064: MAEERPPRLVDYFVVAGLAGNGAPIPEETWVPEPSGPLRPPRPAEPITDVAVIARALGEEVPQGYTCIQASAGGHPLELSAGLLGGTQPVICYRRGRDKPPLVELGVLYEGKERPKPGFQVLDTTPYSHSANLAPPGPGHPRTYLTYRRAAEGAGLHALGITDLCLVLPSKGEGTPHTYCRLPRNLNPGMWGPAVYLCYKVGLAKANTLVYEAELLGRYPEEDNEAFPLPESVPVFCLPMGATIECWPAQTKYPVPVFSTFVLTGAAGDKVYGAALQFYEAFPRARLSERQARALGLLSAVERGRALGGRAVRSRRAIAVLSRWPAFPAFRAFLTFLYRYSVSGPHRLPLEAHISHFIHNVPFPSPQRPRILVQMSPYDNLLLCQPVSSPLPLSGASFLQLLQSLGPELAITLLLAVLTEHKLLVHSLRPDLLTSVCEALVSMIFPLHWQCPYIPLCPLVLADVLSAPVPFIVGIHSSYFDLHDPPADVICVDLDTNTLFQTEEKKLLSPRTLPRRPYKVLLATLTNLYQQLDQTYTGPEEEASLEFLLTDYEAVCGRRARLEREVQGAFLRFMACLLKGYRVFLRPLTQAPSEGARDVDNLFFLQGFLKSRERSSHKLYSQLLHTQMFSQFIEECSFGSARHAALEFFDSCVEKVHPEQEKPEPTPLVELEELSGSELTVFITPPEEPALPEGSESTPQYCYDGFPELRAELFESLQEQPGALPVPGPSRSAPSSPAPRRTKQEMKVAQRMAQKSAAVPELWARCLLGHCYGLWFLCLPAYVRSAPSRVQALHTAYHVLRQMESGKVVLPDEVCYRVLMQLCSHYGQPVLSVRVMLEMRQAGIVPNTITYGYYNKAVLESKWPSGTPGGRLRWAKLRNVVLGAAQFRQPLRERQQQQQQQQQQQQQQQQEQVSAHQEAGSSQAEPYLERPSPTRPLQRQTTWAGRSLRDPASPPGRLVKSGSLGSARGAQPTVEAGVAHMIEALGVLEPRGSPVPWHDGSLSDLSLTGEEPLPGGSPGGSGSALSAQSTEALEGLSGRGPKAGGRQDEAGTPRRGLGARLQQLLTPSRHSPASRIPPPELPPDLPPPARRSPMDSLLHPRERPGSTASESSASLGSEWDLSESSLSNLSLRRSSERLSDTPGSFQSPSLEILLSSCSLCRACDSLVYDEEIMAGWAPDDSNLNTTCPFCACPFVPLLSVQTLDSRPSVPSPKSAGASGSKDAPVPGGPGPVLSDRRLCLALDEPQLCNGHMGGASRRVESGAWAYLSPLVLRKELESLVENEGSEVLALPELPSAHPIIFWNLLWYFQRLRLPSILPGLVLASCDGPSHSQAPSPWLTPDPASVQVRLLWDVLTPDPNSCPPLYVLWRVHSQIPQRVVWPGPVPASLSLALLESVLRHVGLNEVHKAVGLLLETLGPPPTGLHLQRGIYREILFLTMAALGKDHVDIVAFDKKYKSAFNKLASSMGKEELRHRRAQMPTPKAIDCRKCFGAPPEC
UniProt Q6P3S1: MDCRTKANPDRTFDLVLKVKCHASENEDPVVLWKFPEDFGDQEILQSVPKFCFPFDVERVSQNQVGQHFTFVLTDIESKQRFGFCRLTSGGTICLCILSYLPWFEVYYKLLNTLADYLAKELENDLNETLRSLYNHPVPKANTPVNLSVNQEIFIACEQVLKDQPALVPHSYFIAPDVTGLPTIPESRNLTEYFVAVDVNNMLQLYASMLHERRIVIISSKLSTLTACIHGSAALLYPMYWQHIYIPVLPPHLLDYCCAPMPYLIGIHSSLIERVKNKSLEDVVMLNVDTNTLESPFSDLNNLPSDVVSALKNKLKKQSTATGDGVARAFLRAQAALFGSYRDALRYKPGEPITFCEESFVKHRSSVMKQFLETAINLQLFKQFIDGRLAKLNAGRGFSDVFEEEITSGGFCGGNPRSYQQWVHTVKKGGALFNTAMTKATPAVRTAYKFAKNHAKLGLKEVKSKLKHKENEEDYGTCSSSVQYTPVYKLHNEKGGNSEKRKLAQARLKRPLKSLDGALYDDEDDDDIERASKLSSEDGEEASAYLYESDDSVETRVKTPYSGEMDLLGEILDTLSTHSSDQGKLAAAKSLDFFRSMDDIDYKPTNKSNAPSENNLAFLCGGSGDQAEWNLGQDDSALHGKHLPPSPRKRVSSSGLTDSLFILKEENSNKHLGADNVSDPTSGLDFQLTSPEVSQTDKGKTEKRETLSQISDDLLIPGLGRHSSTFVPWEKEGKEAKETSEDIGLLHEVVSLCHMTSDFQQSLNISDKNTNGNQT
UniProt Q8TCE6, whole entry, looked up: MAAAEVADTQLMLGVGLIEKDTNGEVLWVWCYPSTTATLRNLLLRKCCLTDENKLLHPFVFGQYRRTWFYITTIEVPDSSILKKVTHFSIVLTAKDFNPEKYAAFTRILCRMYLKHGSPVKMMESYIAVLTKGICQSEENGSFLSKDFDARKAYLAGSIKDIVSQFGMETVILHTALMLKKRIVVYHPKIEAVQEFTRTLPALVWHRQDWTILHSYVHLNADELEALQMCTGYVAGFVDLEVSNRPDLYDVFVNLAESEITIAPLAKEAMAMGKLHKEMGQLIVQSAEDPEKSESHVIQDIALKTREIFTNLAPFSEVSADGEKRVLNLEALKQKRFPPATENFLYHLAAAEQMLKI
UniProt P52429: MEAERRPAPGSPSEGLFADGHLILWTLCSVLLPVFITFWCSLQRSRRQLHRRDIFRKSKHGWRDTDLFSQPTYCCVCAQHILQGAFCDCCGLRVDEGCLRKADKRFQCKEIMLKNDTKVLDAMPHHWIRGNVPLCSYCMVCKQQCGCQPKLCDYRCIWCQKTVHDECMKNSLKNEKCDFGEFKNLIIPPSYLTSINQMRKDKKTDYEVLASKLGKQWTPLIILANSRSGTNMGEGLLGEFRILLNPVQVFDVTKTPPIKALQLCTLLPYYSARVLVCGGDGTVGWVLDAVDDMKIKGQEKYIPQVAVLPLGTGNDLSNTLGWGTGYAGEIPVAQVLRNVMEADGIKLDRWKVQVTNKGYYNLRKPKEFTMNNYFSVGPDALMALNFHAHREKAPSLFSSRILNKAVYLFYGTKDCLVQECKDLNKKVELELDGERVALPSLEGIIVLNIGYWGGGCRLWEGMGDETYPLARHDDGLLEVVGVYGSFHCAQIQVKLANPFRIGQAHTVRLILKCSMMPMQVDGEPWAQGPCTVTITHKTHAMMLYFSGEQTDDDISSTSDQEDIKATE
UniProt Q9H0S4: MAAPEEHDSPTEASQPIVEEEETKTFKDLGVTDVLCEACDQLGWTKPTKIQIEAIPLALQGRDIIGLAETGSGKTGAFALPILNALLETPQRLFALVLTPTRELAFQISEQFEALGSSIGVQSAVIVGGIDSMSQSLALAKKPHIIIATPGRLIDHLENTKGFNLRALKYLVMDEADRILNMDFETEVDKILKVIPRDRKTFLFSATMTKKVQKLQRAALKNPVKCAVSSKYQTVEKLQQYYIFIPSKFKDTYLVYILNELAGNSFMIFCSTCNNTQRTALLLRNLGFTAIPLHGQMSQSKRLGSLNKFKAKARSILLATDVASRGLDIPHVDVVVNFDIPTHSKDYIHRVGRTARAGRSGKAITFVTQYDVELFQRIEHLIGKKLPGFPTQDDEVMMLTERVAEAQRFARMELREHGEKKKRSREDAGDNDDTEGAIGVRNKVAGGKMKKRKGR
UniProt Q9NUI1: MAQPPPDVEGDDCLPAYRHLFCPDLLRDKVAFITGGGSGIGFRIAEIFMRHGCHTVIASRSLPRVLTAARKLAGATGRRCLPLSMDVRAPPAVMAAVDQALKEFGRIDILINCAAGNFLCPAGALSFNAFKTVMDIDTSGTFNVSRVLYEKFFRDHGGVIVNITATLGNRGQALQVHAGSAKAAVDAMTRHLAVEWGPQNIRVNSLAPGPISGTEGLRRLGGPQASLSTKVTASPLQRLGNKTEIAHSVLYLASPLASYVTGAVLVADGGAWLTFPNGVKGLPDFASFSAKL
UniProt Q8IY37: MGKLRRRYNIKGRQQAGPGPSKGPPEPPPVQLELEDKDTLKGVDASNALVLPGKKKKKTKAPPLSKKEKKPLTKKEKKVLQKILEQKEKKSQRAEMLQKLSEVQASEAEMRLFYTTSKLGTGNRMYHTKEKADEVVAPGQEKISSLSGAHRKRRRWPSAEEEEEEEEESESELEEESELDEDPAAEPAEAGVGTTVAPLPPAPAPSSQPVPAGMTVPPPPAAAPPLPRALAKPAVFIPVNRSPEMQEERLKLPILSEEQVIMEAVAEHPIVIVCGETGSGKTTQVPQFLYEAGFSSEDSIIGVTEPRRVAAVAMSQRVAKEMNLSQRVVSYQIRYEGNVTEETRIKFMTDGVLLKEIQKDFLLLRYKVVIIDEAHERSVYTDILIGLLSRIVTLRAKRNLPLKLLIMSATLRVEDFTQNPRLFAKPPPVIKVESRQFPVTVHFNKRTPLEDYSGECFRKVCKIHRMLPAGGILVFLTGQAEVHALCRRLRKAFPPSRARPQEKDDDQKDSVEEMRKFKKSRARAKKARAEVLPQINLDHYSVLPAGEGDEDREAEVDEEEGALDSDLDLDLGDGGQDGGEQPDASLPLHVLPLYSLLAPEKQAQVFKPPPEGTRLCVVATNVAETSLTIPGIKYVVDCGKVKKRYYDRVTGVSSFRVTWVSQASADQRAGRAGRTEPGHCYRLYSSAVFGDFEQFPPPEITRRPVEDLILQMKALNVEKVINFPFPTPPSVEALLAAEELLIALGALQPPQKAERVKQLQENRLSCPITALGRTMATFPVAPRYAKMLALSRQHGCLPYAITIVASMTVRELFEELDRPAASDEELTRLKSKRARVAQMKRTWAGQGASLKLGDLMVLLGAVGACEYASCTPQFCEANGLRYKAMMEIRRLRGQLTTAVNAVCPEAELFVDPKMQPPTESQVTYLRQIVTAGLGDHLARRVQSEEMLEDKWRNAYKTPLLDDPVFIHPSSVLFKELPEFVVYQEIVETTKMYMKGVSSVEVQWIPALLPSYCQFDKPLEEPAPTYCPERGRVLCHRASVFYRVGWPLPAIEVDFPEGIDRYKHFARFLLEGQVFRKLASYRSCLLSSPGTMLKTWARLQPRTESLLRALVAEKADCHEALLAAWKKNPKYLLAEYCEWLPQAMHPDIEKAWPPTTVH

Key:
Assay in all cases: log2 fold change, soluble protein after heating vs DMSO (PISA); higher = thermal stabilisation; K562 cells, 10 uM, 30 min; active = over 0.2 and 3.5 SD of the protein, either way, in both replicates (recomputed)
[1] = compound: CC1=C(C=C(C=C1)NC(=O)C2=CC(=CC=C2)C(C)(C)C#N)NC3=CC4=C(C=C3)N=CN(C4=O)C
Method in brief: (§1)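 Soluble protein was quantified by TMTpro 16plex LC-MS/MS after channel sums were equalised. It was obtained as the supernatant after 21,000xg for 90 min from pooled aliquots of K562 cells (2×10^6 cells/mL, 10 μM compound, 30 min) heated for 3 min across 48°C-58°C and extracted in PBS with 0.5% NP-40 at 4°C. Thermal stability values are relative to control samples and come from duplicates. They are given as log2 fold changes.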

[2] = compound: CC1=C(C=C(C=C1)NC(=O)C2=CC(=CC=C2)N(C)C)NC(=O)C3=CC=C(C=C3)O
Method in brief: as §1

[3] = compound: CC1=CC=C(C=C1)SC2=C3C=C(SC3=CN=C2)C(=O)N
Method in brief: as §1

[4] = compound: CC1=NC(=CC=C1)C2=C(N=C(N2)C(C)(C)C)C3=CC4=NC=CN=C4C=C3
Method in brief: as §1

Nexturastat A = compound: CCCCN(Cc1ccc(C(=O)NO)cc1)C(=O)Nc1ccccc1 [Nexturastat A]
Method in brief: as §1

vemurafenib = compound: CCCS(=O)(=O)Nc1ccc(F)c(C(=O)c2c[nH]c3ncc(-c4ccc(Cl)cc4)cc23)c1F [vemurafenib]
Method in brief: as §1

[5] = compound: CCCS(=O)(=O)Nc1ccc(F)c(C(=O)c2c[nH]c3ncc(Cl)cc23)c1F
Method in brief: as §1

[6] = compound: CCCc1cc(C)[nH]c(=O)c1CNC(=O)c1cc(-c2ccnc(N3CCN(C)CC3)c2)cc2c1cnn2C(C)C
Method in brief: as §1

givinostat = compound: CCN(CC)Cc1ccc2cc(COC(=O)Nc3ccc(C(=O)NO)cc3)ccc2c1 [givinostat]
Method in brief: as §1

barasertib = compound: CCN(CCCOc1ccc2c(Nc3cc(CC(=O)Nc4cccc(F)c4)[nH]n3)ncnc2c1)CCOP(=O)(O)O [barasertib]
Method in brief: as §1

[7] = compound: CC[C@@H]1C(=O)N(C)c2cnc(Nc3ccc(C(=O)NC4CCN(C)CC4)cc3OC)nc2N1C1CCCC1
Method in brief: as §1

volasertib = compound: CC[C@@H]1C(=O)N(C)c2cnc(Nc3ccc(C(=O)N[C@H]4CC[C@H](N5CCN(CC6CC6)CC5)CC4)cc3OC)nc2N1C(C)C [volasertib]
Method in brief: as §1

[8] = compound: CC[C@H](C)N1C=C(C2=C(C=C(C=C21)C3=CN=C(C=C3)N4CCNCC4)C(=O)NCC5=C(C=C(NC5=O)C)C)C
Method in brief: as §1

epoxomicin = compound: CC[C@H](C)[C@@H](C(=O)N[C@@H]([C@@H](C)O)C(=O)N[C@@H](CC(C)C)C(=O)[C@]1(CO1)C)NC(=O)[C@H]([C@@H](C)CC)N(C)C(=O)C [epoxomicin]
Method in brief: as §1

[9] = compound: CCn1cc(-c2ccnc3[nH]c(-c4cccc(CN(C)C)c4)cc23)c(-c2ccc(NC(=O)N(C)C)cc2)n1
Method in brief: as §1

[10] = compound: CN(C)CC(=O)Nc1ccc2[nH]c(=O)c3ccccc3c2c1
Method in brief: as §1

[11] = compound: CN1C2=C(C3=C1C(=O)N(N=C3)CC4=CC(=CC=C4)N)SC(=C2)S(=O)C
Method in brief: as §1

[12] = compound: CN1CCC(CNc2ccc3ncc(-c4cccc(OC(F)(F)F)c4)n3n2)CC1
Method in brief: as §1

[13] = compound: CCn1c(C(=O)N(C2CC2)C2CC2)cc2c3c(ncn3C)c(Nc3cc(C)n(C)n3)nc21
Method in brief: as §1

rosiglitazone = compound: CN(CCOC1=CC=C(C=C1)C[C@H]2C(=O)NC(=O)S2)C3=CC=CC=N3 (racemic) [rosiglitazone]
Method in brief: as §1

Measured: log2 fold change

DDX5 (UniProt P17844)
inactive: [1] 0.136 | [2] -0.131 | [3] 0.036 | [4] 0.112 | Nexturastat A 0.033 | vemurafenib 0.142 | [5] 0.174 | [6] 0.036 | givinostat 0.178 | barasertib 0.122 | [8] 0.103 | epoxomicin 0.149 | [9] -0.083 | [10] 0.101 | [11] 0.018 | [12] 0.019
active: [7] -0.426 | volasertib -0.589

DHPS (UniProt P49366)
inactive: [1] -0.074 | [2] 0.016 | [3] 0.034 | [4] 0.161 | Nexturastat A -0.079 | vemurafenib 0.067 | [5] 0.008 | [6] -0.015 | givinostat -0.001 | barasertib 0.01 | [7] 0.045 | volasertib 0.028 | [8] 0.001 | epoxomicin 0.046 | [9] 0.014 | [10] -0.012 | [11] -0.017 | [12] -0.049

DDOST (UniProt P39656)
inactive: [1] 0.03 | [2] -0.013 | [3] -0.031 | [4] 0.016 | Nexturastat A -0.01 | vemurafenib 0.003 | [5] -0.006 | [6] -0.001 | givinostat 0.006 | barasertib 0.008 | [7] 0.006 | volasertib -0.102 | [8] -0.014 | epoxomicin -0.014 | [9] 0.052 | [10] -0.031 | [11] 0.019 | [12] 0.089

DDB2 (UniProt Q92466)
inactive: [1] -0.031 | [2] 0.085 | [3] -0.01 | Nexturastat A 0.028 | vemurafenib -0.018 | [5] 0 | [6] -0.067 | givinostat 0.034 | barasertib -0.005 | volasertib 0.069 | [8] -0.014 | epoxomicin -0.033 | [13] -0.001 | [9] 0.089 | [10] -0.001 | rosiglitazone 0.084 | [11] 0.039 | [12] 0.013

DENND4B (UniProt O75064)
inactive: [1] 0.071 | [2] -0.025 | [3] -0.007 | [4] -0.017 | Nexturastat A 0.165 | vemurafenib 0.013 | [5] -0.067 | [6] -0.028 | givinostat -0.001 | barasertib 0.04 | volasertib 0.034 | [8] 0.106 | epoxomicin -0.028 | [13] -0.059 | [9] 0.064 | [10] 0.001 | rosiglitazone -0.148 | [11] -0.04 | [12] -0.097

Quoted from the listing (two entries):
DDX5 (UniProt P17844)
inactive: [1] 0.136 | [2] -0.131 | [3] 0.036 | [4] 0.112 | Nexturastat A 0.033 | vemurafenib 0.142 | [5] 0.174 | [6] 0.036 | givinostat 0.178 | barasertib 0.122 | [8] 0.103 | epoxomicin 0.149 | [9] -0.083 | [10] 0.101 | [11] 0.018 | [12] 0.019
active: [7] -0.426 | volasertib -0.589

DHPS (UniProt P49366)
inactive: [1] -0.074 | [2] 0.016 | [3] 0.034 | [4] 0.161 | Nexturastat A -0.079 | vemurafenib 0.067 | [5] 0.008 | [6] -0.015 | givinostat -0.001 | barasertib 0.01 | [7] 0.045 | volasertib 0.028 | [8] 0.001 | epoxomicin 0.046 | [9] 0.014 | [10] -0.012 | [11] -0.017 | [12] -0.049

Next part.

DGKA (UniProt P23743)
inactive: [1] 0.028 | [2] 0.069 | [3] 0.025 | Nexturastat A 0.116 | vemurafenib -0.404 | [5] 0.06 | [6] -0.217 | givinostat 0.044 | barasertib 0.057 | volasertib -0.505 | epoxomicin -0.025 | [13] -0.103 | [10] 0.239 | rosiglitazone 0 | [11] 0.102

DMXL1 (UniProt Q9Y485)
active: [12] -0.276
inactive: [1] -0.075 | [2] -0.004 | [3] 0.025 | [4] 0.017 | Nexturastat A 0.044 | vemurafenib 0.008 | [5] 0.032 | [6] 0.043 | givinostat 0.076 | barasertib 0.068 | [7] -0.119 | volasertib -0.241 | [8] 0.029 | epoxomicin 0.026 | [9] 0.072 | [10] 0.012 | [11] 0.01

DENND1B (UniProt Q6P3S1)
inactive: [1] 0.039 | [3] -0.084 | [4] 0.174 | Nexturastat A 0.258 | vemurafenib 0.074 | [5] -0.237 | [6] -0.072 | barasertib -0.019 | [7] -0.058 | volasertib -0.366 | [8] -0.297 | epoxomicin -0.308 | [10] -0.172 | rosiglitazone -0.049 | [11] -0.039

DENND10 (UniProt Q8TCE6)
inactive: [1] 0.022 | [2] 0.036 | [3] 0.029 | Nexturastat A -0.119 | vemurafenib -0.023 | [5] 0.01 | [6] -0.023 | givinostat 0.131 | barasertib 0.036 | [7] -0.041 | volasertib -0.241 | [8] 0.121 | epoxomicin -0.041 | [10] 0.076 | [11] -0.031

DGKE (UniProt P52429)
inactive: [1] -0.002 | [3] 0.042 | [4] 0.149 | [5] 0.251 | [6] 0.082 | givinostat -0.06 | barasertib 0.035 | volasertib -0.146 | [8] 0.209 | [13] -0.022 | rosiglitazone 0.08

DHCR7 (UniProt Q9UBM7)
active: givinostat 0.808 | volasertib 1.68 | [9] 0.522
inactive: [1] -0.037 | [2] -0.028 | [3] -0.055 | [4] 0.023 | Nexturastat A 0.104 | vemurafenib 0.011 | [5] 0.039 | [6] 0.139 | barasertib 0.204 | [7] 0.409 | [8] 0.054 | epoxomicin 0.154 | [10] 0.085 | [11] -0.055 | [12] 0.203

DMXL2 isoform 3 (UniProt Q8TDJ6)
inactive: [1] -0.093 | [2] 0.075 | Nexturastat A 0.193 | vemurafenib -0.199 | givinostat 0.225 | barasertib 0.007 | epoxomicin 0.011 | [13] -0.052 | [9] 0.159 | [10] -0.113 | rosiglitazone -0.091 | [11] 0.138 | [12] -0.308

DNAAF5 (UniProt Q86Y56)
inactive: [1] 0.013 | [2] 0.087 | [3] 0.092 | [4] -0.053 | Nexturastat A 0.534 | vemurafenib -0.088 | [5] -0.011 | [6] 0.159 | barasertib -0.011 | [7] 0.217 | volasertib 0.021 | epoxomicin -0.341 | [9] 0.083 | [10] 0.088 | rosiglitazone -0.09 | [11] 0.456 | [12] 0.248

DDX47 (UniProt Q9H0S4)
inactive: [1] 0.084 | [2] -0.055 | [4] -0.11 | Nexturastat A 0.212 | vemurafenib 0.028 | [6] -0.052 | barasertib 0.127 | [8] 0.05 | epoxomicin -0.241 | [10] 0.124 | rosiglitazone -0.209 | [11] 0.23

DIS3L (UniProt Q8TF46)
inactive: [1] -0.031 | [2] -0.181 | [3] -0.018 | [4] 0.044 | Nexturastat A 0.176 | vemurafenib 0.021 | [5] 0.043 | [6] 0.115 | givinostat 0.16 | [7] -0.059 | volasertib -0.307 | [8] -0.09 | epoxomicin -0.214 | [13] 0.073 | [10] 0.13 | [11] 0.133

DDX24 (UniProt Q9GZR7)
inactive: [1] -0.099 | [2] -0.116 | [3] -0.104 | [4] -0.047 | Nexturastat A 0.229 | vemurafenib -0.12 | [5] -0.002 | [6] -0.557 | volasertib -0.193 | epoxomicin -0.271 | [9] 0.123 | [10] 0.831 | [11] 0.296 | [12] 0.291

DDX11 (UniProt Q96FC9)
inactive: [1] -0.04 | [2] 0.052 | [3] -0.035 | [4] 0.043 | Nexturastat A -0.011 | vemurafenib -0.072 | [5] 0 | [6] -0.006 | givinostat -0.029 | barasertib 0.125 | volasertib -0.084 | [8] 0.128 | epoxomicin 0.099 | [10] 0.098 | [11] -0.04

DECR2 (UniProt Q9NUI1)
inactive: [1] 0.068 | [3] -0.029 | [4] -0.06 | Nexturastat A -0.056 | vemurafenib 0.128 | [5] -0.031 | [6] 0.029 | givinostat -0.024 | barasertib 0.093 | [7] 0.002 | volasertib -0.003 | [8] -0.017 | epoxomicin 0.036 | [13] 0.022 | [9] -0.234 | [10] -0.02 | rosiglitazone 0.012 | [11] 0.073 | [12] -0.032

DFFB (UniProt O76075)
inactive: [1] -0.023 | [2] -0.013 | [3] 0.013 | [4] 0.019 | Nexturastat A -0.04 | vemurafenib 0.055 | [5] 0 | [6] -0.109 | givinostat -0.059 | barasertib 0.034 | [7] 0.049 | volasertib 0.036 | [8] 0.104 | epoxomicin 0.039 | [9] 0.028 | [10] -0.036 | [11] -0.074 | [12] -0.01

DHX37 (UniProt Q8IY37)
inactive: Nexturastat A 0.033 | givinostat 0.176 | epoxomicin -0.088 | [13] -0.129

DDX46, A0A0C4DG89
inactive: Nexturastat A 0.058 | [6] 0.149 | [8] -0.074 | epoxomicin 0.155
